According to patent US20040058380A1 (priority 2002, published 2004):
At least one structure is not confirmed: it was looked up by name or label, or the drawing left a doubt.

With N[C@@H](CCC(=O)O)C(=O)O [L-Glu] the “K^POT N-CBZ-L-ASP, interfere amino acids” value was “≈ 0.001” and the “slope of potential response” value was roughly 0 mV dec^−1.
